Results taken from publication PMC4679777.
Results are given in words; binding and its absence hold for the method and conditions named. In cells and extracts the contact can be indirect. Some entries that bind do so weakly or less than the wild type.

Protein sequences, listed by entry. Tags and fused reporters are not part of them.
UniProt P34158: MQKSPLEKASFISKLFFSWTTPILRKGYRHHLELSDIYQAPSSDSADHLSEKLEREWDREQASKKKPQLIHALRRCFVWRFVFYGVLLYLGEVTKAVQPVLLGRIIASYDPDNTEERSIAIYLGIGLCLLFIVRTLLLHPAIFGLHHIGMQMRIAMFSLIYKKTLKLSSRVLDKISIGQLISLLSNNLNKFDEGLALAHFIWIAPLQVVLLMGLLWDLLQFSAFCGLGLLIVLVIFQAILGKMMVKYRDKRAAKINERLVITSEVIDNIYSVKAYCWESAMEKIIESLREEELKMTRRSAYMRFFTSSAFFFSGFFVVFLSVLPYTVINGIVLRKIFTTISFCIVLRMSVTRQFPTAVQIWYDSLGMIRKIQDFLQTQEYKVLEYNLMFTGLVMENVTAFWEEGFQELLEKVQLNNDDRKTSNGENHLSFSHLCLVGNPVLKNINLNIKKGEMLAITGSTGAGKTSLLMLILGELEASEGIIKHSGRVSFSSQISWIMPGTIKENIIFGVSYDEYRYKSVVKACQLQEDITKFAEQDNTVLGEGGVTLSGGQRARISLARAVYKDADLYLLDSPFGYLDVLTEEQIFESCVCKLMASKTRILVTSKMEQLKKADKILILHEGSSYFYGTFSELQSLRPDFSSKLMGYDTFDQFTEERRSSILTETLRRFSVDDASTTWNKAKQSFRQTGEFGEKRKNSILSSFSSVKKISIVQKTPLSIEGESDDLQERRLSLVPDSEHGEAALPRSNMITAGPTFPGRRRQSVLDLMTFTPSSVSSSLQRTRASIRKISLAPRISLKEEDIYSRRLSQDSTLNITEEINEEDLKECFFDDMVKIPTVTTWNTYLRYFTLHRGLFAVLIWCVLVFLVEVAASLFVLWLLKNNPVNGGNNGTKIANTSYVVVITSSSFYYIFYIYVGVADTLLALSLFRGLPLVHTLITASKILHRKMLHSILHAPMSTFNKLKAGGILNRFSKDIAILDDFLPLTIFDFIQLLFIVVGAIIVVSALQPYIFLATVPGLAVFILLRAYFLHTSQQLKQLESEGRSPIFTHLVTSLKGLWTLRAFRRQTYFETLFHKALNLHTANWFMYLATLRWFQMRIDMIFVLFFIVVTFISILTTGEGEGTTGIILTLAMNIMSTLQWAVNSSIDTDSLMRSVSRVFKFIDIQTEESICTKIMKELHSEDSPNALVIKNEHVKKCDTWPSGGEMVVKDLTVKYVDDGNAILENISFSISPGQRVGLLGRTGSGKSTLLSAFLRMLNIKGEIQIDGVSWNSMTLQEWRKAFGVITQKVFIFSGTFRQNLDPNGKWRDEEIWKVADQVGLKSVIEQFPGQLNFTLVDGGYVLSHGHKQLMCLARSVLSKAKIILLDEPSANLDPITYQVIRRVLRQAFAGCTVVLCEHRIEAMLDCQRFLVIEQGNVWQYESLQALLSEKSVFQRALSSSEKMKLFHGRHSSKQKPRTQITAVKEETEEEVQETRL

Biological target: cystic fibrosis transmembrane conductance regulator (Cftr) (rat (endogenous in maturation-stage enamel organ)) (UniProt P34158)
Test: co-IP; maturation-stage enamel organ protein (50-100 ug) lysed in 1xTBS with 1% Triton-100, pre-cleared, 1 ug anti-Cftr antibody at 4°C, A/G agarose beads overnight, washed with 50 mM Tris, 0.1% NP-40, pH 7.4; immunoblot for Slc26a1, Slc26a6, Slc26a7; negative control without the anti-Cftr antibody

B1: Slc26a1 (protein, UniProt P45380 1-703)
chain: MDASPEPPQKGGTLVLVRRQPPVSQGLLETLKARLKKSCTCSMPCAQALVQGLFPVIRWLPQYRLKEYLAGDVMSGLVIGIILVPQAIAYSLLAGLQPIYSLYTSFFANLIYFLMGTSRHVNVGIFSLLCLMVGQVVDRELQLAGFDPSQDSLGPGNNDSTLNNTATLTVGLQDCGRDCHAIRIATALTLMAGLYQVLMGILRLGFVSTYLSQPLLDGFAMGASVTILTSQAKHLLGVRIPRHQGLGMVIHTWLSLLQNVGQANLCDVVTSAVCLAVLLTAKELSDRYRHYLKVPVPTELLVIVVATIASHFGQLHTRFGSSVAGNIPTGFVAPQIPDPKIMWSVALDAMSLALVGSAFSISLAEMFARSHGYSVSANQELLAVGCCNVLPAFFHCFATSAALSKTLVKIATGCQTQLSSVVSAAVVLLVLLVLAPLFHDLQRCVLACIIVVSLRGALRKVKDLPQLWRLSPADALVWVATAATCVLVSIEAGLLAGVFFSLLSLAGRTQRPRAALLARIGDSTFYEDAAEFEGLLPPPEVRVFRFTGPLYYANKDFFLRSLYSLTGLDAGYSATRKDRGTEVGVSNRSLVDRKDLGSVSSGDGLVVPLAFGFHTVVIDCAPLLFLDVAGMATLKDLRKNYRALDITLLLACCSPSVRDTLRKGGFLGEDQGTAEELLFPSVHSAVETACARREELMAADSAL
For B1, the binding was “binds”.
